The supplement of paper PMC8732350
Counter-ions that a name gives are not always drawn. ± gives the standard deviation of the averaged measurements. Some of the results follow. Most values lie within the scatter of the assay; repeated measurements hardly agree.

Test system: A549
Test: surface PD-L1 immunofluorescence intensity relative to IFN-gamma-only control (ratio); higher = more PD-L1 expression
Conditions: 10 µM; exposure time 24 h; IFN-gamma 100 ng/mL

With COc1ccc(-c2nc(C(=O)N3CCN(C)CC3)sc2-c2ccc(OC)cc2)cc1 as the compound, how does the “surface PD-L1 immunofluorescence intensity” value read?
Its value is 0.994.

For CC(C)C(=O)SCCCCCCC(=O)Nc1nc(-c2ccccc2)cs1, which “surface PD-L1 immunofluorescence intensity” value is on record?
The value was 0.965.

Which “surface PD-L1 immunofluorescence intensity” value does the source give for CC(=O)Oc1cc(C(F)(F)F)ccc1C(=O)O [Triflusal] here?
The value was 1.01.

Which “surface PD-L1 immunofluorescence intensity” value does the source give for CNC(=O)c1ccc2cc([C@@]3(O)CCn4cncc43)ccc2c1 [TAK-700 (Orteronel)] here?
The value was 1.12.

O=C(O)CC/C=C\C[C@H]1CO[C@@H](c2ccccc2Cl)O[C@H]1c1ccccc1O was tested. Which “surface PD-L1 immunofluorescence intensity” value did it give?
The value was 0.866.

Which “surface PD-L1 immunofluorescence intensity” value does the source give for C[C@]12C=CC(=O)C=C1CC[C@@H]1[C@@H]2[C@@H](O)C[C@@]2(C)[C@H]1CC[C@]2(O)C(=O)CO [Prednisolone (Hydroretrocortine)] here?
Its value is 0.888.

O=c1ncn2nc(Sc3ccc(F)cc3F)ccc2c1-c1c(Cl)cccc1Cl was tested. Which “surface PD-L1 immunofluorescence intensity” value did it give?
Its value is 0.995.

How did the “surface PD-L1 immunofluorescence intensity” value turn out when CC(C)Cc1ccc([C@H](C)C(=O)O)cc1 [S-(+)-ibuprofen] was run?
Its value is 0.996.

Cc1cncc(CN2CCC(=C3c4ccc(Cl)cc4CCc4cccnc43)CC2)c1 [Rupatadine Fumarate] was tested. Which “surface PD-L1 immunofluorescence intensity” value did it give?
The value was 1.06.

With CS(=O)(=O)c1ccc([C@@H](O)[C@@H](CO)NC(=O)C(Cl)Cl)cc1 [Thiamphenicol] as the compound, how does the “surface PD-L1 immunofluorescence intensity” value read?
The value was 0.878.

For COc1[nH]c2ccc(F)cc2c1C(=O)OCC1CCN(CCNS(C)(=O)=O)CC1.NS(=O)(=O)O, which “surface PD-L1 immunofluorescence intensity” value is on record?
The value was 1.08.

For CC1(C)CCC(c2ccc(Cl)cc2)=C(CN2CCN(c3ccc(C(=O)NS(=O)(=O)c4ccc(N[C@H](CCN5CCOCC5)CSc5ccccc5)c(S(=O)(=O)C(F)(F)F)c4)cc3)CC2)C1 [ABT-263 (Navitoclax)], which “surface PD-L1 immunofluorescence intensity” value is on record?
The value was 1.12.

How did the “surface PD-L1 immunofluorescence intensity” value turn out when CC(C)Cc1ccc(C(C)C(=O)NO)cc1 (configuration not stated) [Ibuproxam] was run?
The value was 1.

With CCOC(=O)N1CCC(=C2c3ccc(Cl)cc3CCc3cccnc32)CC1 [Loratidine] as the compound, how does the “surface PD-L1 immunofluorescence intensity” value read?
The value was 1.06.

For CCOC(=O)N1CCC(=C2c3ccc(Cl)cc3CCc3cccnc32)CC1 [Loratadine], which “surface PD-L1 immunofluorescence intensity” value is on record?
The value was 1.05.

O=C(NOCC1CC1)c1ccc(F)c(F)c1Nc1ccc(I)cc1Cl was tested. Which “surface PD-L1 immunofluorescence intensity” value did it give?
The value was 0.945.

How did the “surface PD-L1 immunofluorescence intensity” value turn out when Nc1nc(F)nc2c1ncn2[C@@H]1O[C@H](COP(=O)(O)O)[C@@H](O)[C@@H]1O [Fludarabine Phosphate (Fludara)] was run?
Its value is 1.05.

For CN1CCN(S(=O)(=O)c2ccc(-c3cnc(N)c(C(=O)Nc4cccnc4)n3)cc2)CC1, which “surface PD-L1 immunofluorescence intensity” value is on record?
Its value is 1.11.

How did the “surface PD-L1 immunofluorescence intensity” value turn out when COc1ccc(CC(C)NCC(O)c2ccc(O)c(NC=O)c2)cc1 (configuration not stated) [Formoterol hemifumarate] was run?
Its value is 0.988.

Which “surface PD-L1 immunofluorescence intensity” value does the source give for COc1ccc(CC(C)NCC(O)c2ccc(O)c(NC=O)c2)cc1 (configuration not stated) [Formoterol fumarate] here?
The value was 1.13.

How did the “surface PD-L1 immunofluorescence intensity” value turn out when O=C(OCCN1CCOCC1)C1(c2ccccc2)CCCCC1 [PRE-084 hydrochloride] was run?
Its value is 1.04.

Which “surface PD-L1 immunofluorescence intensity” value does the source give for CS(=O)(=O)c1ccc(C(=O)Nc2ccc(Cl)c(-c3ccccn3)c2)c(Cl)c1 [Vismodegib (GDC-0449)] here?
Its value is 1.07.

With O=C1N[C@H](C(=O)O)CS1 [Procysteine] as the compound, how does the “surface PD-L1 immunofluorescence intensity” value read?
The value was 1.01.

For C[C@H](N[C@@H](CCc1ccccc1)C(=O)O)C(=O)N1CCC[C@H]1C(=O)O [Enalaprilat dihydrate], which “surface PD-L1 immunofluorescence intensity” value is on record?
The value was 1.02.

Which “surface PD-L1 immunofluorescence intensity” value does the source give for NC(=O)N1CCC(CC(=O)N2CCC([C@H]3c4ncc(Br)cc4CCc4cc(Cl)cc(Br)c43)CC2)CC1 here?
The value was 1.08.

How did the “surface PD-L1 immunofluorescence intensity” value turn out when CN(C)[C@@H]1C(O)=C(C(N)=O)C(=O)[C@@]2(O)C(O)=C3C(=O)c4c(O)cccc4[C@@](C)(O)[C@H]3C[C@@H]12 [Tetracycline hydrochloride] was run?
The value was 0.954.

CCCCC1CCC(c2nc(-c3ccncc3)no2)CC1 (configuration not stated) was tested. Which “surface PD-L1 immunofluorescence intensity” value did it give?
Its value is 1.

How did the “surface PD-L1 immunofluorescence intensity” value turn out when COCCCC/C(=N\OCCN)c1ccc(C(F)(F)F)cc1 [Fluvoxamine maleate] was run?
Its value is 1.05 ± 0.16.

For C[C@]12CCC(=O)C=C1CC[C@@H]1[C@@H]2C(=O)C[C@@]2(C)[C@H]1CC[C@]2(O)C(=O)CO [Cortisone], which “surface PD-L1 immunofluorescence intensity” value is on record?
Its value is 1.02.

Which “surface PD-L1 immunofluorescence intensity” value does the source give for COC(=O)[C@H](c1ccccc1Cl)N1CCc2sccc2C1 [Clopidogrel (Plavix)] here?
The value was 1.03.

Cc1c(Cl)cccc1Nc1ccccc1C(=O)O [Tolfenamic acid] was tested. Which “surface PD-L1 immunofluorescence intensity” value did it give?
The value was 0.932.

COc1cc(F)c(C(C)C)cc1-c1ccc(C(F)(F)F)cc1CN1C(=O)O[C@H](c2cc(C(F)(F)F)cc(C(F)(F)F)c2)[C@@H]1C [Anacetrapib (MK-0859)] was tested. Which “surface PD-L1 immunofluorescence intensity” value did it give?
Its value is 1.

CO[C@H]1/C=C/O[C@@]2(C)Oc3c(C)c(O)c4c(O)c(c(/C=N/N5CCN(C)CC5)c(O)c4c3C2=O)NC(=O)/C(C)=C\C=C\[C@H](C)[C@H](O)[C@@H](C)[C@@H](O)[C@@H](C)[C@H](OC(C)=O)[C@@H]1C [Rifampicin] was tested. Which “surface PD-L1 immunofluorescence intensity” value did it give?
The value was 1.03 ± 0.073.

Which “surface PD-L1 immunofluorescence intensity” value does the source give for CO[C@H]1/C=C/O[C@@]2(C)Oc3c(C)c(O)c4c(O)c(c(/C=N/N5CCN(C)CC5)c(O)c4c3C2=O)NC(=O)/C(C)=C\C=C\[C@H](C)[C@H](O)[C@@H](C)[C@@H](O)[C@@H](C)[C@H](OC(C)=O)[C@@H]1C [Rifampin (Rifadin, Rimactane)] here?
Its value is 1.1.

With CC(Oc1ccc(O)cc1)(P(=O)(O)O)P(=O)(O)O as the compound, how does the “surface PD-L1 immunofluorescence intensity” value read?
The value was 1.07 ± 0.052.

Which “surface PD-L1 immunofluorescence intensity” value does the source give for Cc1ccc(N(CC2=NCCN2)c2cccc(O)c2)cc1 [Phentolamine hydrochloride] here?
The value was 0.999.

For Cc1ccc(N(CC2=NCCN2)c2cccc(O)c2)cc1 [Phentolamine HCl], which “surface PD-L1 immunofluorescence intensity” value is on record?
The value was 1.02.

With CC(C)(C)c1ccc(/C=C/C(=O)Nc2ccc3c(c2)OCCO3)cc1 as the compound, how does the “surface PD-L1 immunofluorescence intensity” value read?
The value was 0.96.

With CCc1ccc(CCOc2ccc(CC3SC(=O)NC3=O)cc2)nc1 (configuration not stated) [Pioglitazone] as the compound, how does the “surface PD-L1 immunofluorescence intensity” value read?
Its value is 0.91 ± 0.013.

Which “surface PD-L1 immunofluorescence intensity” value does the source give for O=C(CCCCCCC(=O)Nc1cccnc1)NO [Pyroxamide] here?
The value was 1.07.

How did the “surface PD-L1 immunofluorescence intensity” value turn out when c1ccc(CC2=NCCN2)cc1 [Tolazoline hydrochloride] was run?
Its value is 0.892.

Which “surface PD-L1 immunofluorescence intensity” value does the source give for CC(C)(Oc1ccc(CCNC(=O)c2ccc(Cl)cc2)cc1)C(=O)O [Bezafibrate] here?
The value was 0.981 ± 0.081.

Which “surface PD-L1 immunofluorescence intensity” value does the source give for OCCN1CCN(CCCN2c3ccccc3Sc3ccc(C(F)(F)F)cc32)CC1 [Fluphenazine dihydrochloride] here?
The value was 1.15.

With Clc1ccc2c(c1)C(N1CCNCC1)=Nc1ccccc1O2 [Amoxapine] as the compound, how does the “surface PD-L1 immunofluorescence intensity” value read?
The value was 0.96.

How did the “surface PD-L1 immunofluorescence intensity” value turn out when O=C(O)CCCc1c[nH]c2ccccc12 [3-Indolebutyric acid (IBA)] was run?
The value was 1.07.

Which “surface PD-L1 immunofluorescence intensity” value does the source give for O=C(c1cc(Cc2n[nH]c(=O)c3ccccc23)ccc1F)N1CCN(C(=O)C2CC2)CC1 [Olaparib (AZD2281)] here?
Its value is 1.01.

How did the “surface PD-L1 immunofluorescence intensity” value turn out when CC(C)[C@@H](C)/C=C/[C@@H](C)[C@H]1CC[C@H]2C3=CC=C4C[C@@H](O)CC[C@]4(C)[C@H]3CC[C@]12C [Ergosterol] was run?
Its value is 1.02.
